94 sequences from the supplement of paper PMC3334620 can be followed below.

Over roughly 33,000 sequences, “E-score (-0.5 to 0.5)” has its median near -8e-05; the highest 2% begin near 0.23. The list shows a part of the results.

The target of the assay is T1, Nrg2 (UniProt P38082).
T1 sequence: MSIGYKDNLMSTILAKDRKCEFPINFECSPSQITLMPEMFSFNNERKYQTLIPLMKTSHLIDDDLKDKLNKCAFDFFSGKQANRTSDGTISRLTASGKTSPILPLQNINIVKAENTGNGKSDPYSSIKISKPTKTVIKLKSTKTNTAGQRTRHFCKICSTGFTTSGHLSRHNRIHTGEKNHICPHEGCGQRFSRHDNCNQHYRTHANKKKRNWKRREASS
The experiment in a line: PBM E-score (8-mer binding enrichment) (E-score (-0.5 to 0.5)); higher = stronger / more preferred TF binding. Conditions: protein concentration: 100 nM; construct: GST-full length. The protocol:
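Universal 'all 10-mer' protein binding microarrays (Agilent AMADID 015681) probed with GST-tagged S. cerevisiae TFs (full-length or DBD) made by in vitro transcription/translation (PURExpress), about 100-200 nM. Bound TF was detected with fluorescent anti-GST. Each ungapped 8-mer (which stands for itself and its reverse complement) is scored by the PBM enrichment score (E-score), a modified Wilcoxon-Mann-Whitney statistic from -0.5 to +0.5, computed with the Universal PBM Analysis Suite. Scale: above 0.35 generally sequence-specific binding.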
For the sequence TATATTGA, the “PBM E-score” value was 0.141. Regarding ACAACATC, the “PBM E-score” value was -0.042. For AATAACGC the value was -0.0905. For CCCCGATA the value was -0.0437; for CTCGTGGC, -0.051; for GGTGAACC, 0.0324. Take CCCTTAAG: the “PBM E-score” value was determined as 0.189. To AGTCTATC belongs -0.0531; to AGTTAGAA, 0.045; to CCGGTGTA, -0.106. In the case of CCTAAGTA, the “PBM E-score” value worked out at 0.0734. To AACGGCCT belongs -0.0615. On to GGCTAACA, for which the “PBM E-score” value turned out to be 0.0553. For ACTCGTAC the value was -0.0658. Take ATTAACTA: the “PBM E-score” value came to 0.136. To CCAACTGG belongs 0.135.

Regarding ATACCGAC, the “PBM E-score” value is -0.243. As to ATTAATGG, the “PBM E-score” value is 0.143. Consider ATATACCA, for which the “PBM E-score” value is 0.0362. On to GCTGAGTA, for which the “PBM E-score” value was found to be 0.0995. For CCATATAG the value was 0.0129. On to TAGGTGGA, for which the “PBM E-score” value was -0.136. To GGATCATA belongs -0.00715; to AAATATAC, 0.0852; to GTTCTCCA, 0.0382.

Consider AACTAGTT, for which the “PBM E-score” value was -0.0452. To CGTATGGA belongs 0.124. As to CGACCAAA, the “PBM E-score” value came to 0.222.

Consider AGCGATTC, for which the “PBM E-score” value is -0.02. To AGAGGCCC belongs -0.074; to ATTTTATC, 0.0877; to GAGGTTAA, -0.06. For GCCAACCC the value was -0.0658; for AAATACGA, 0.0699; for ACGCTACC, -0.262. For ACTCCTTG the value was 0.101. Turning to AGTGAACG, the “PBM E-score” value is -0.176. For CCATAGTA, the “PBM E-score” value was found to be 0.0238.

Turning to CTGCTACC, the “PBM E-score” value was -0.0751.

As for ATTCTCGA, the “PBM E-score” value came out at 0.169. In the case of GCTTAGTA, the “PBM E-score” value was -0.117. Take CAATTACC: the “PBM E-score” value worked out at 0.024. To ATCGTGAC belongs -0.038. To CTTCGGTC belongs 0.0242.

On to ATCTAAAT, for which the “PBM E-score” value was -0.00067.

As for CTTTCGCA, the “PBM E-score” value is -0.0222.

AACTAAAC: the “PBM E-score” value came to 0.044.

On to CGCCGGAG, for which the “PBM E-score” value is -0.168. As for CAGGAGGC, the “PBM E-score” value was -0.118. With GCCATCGA, the “PBM E-score” value was determined as 0.199. CGGCAAAA: the “PBM E-score” value was -0.0769. With CACGAGGC, the “PBM E-score” value is -0.027.

On to CAAGGTAG, for which the “PBM E-score” value was 0.0672. To ACGAGGCA belongs -0.0798; to GGGGTCCA, 0.27; to GCAAAAGC, -0.0337. To CGGTCGTA belongs -0.117. For AAGCAATT the value was 0.0783. Take AGATGTGA: the “PBM E-score” value is 0.0509. To GCATTTTA belongs 0.116. Regarding TATGAAGA, the “PBM E-score” value turned out to be 0.0773. To CGTGTGAG belongs 0.0244; to CATCGACC, -0.0514.

AAAACTCA: the “PBM E-score” value came out at 0.0944. For ACGGCACT the value was 0.0185; for GAATGATA, 0.247; for CCGTCCTA, -0.111. For ACAGCTAT the value was -0.0144.

Regarding ACGCGTTG, the “PBM E-score” value was determined as 0.0622. To CAGTGACG belongs 0.00591. To GCTGTTAA belongs 0.0173.

With TACATCGA, the “PBM E-score” value came to 0.1. To ATCGGGTA belongs -0.128. For CTTACGCC the value was -0.0773. To AGGAATCC belongs -0.00661; to CCAGTTCG, 0.0674; to CAGGCCCA, -0.234.

Regarding CCTGCGCA, the “PBM E-score” value stood at 0.0615.

Take GCCTAAAA: the “PBM E-score” value is -0.167. To ATCGAAAC belongs 0.165; to GTACCAAC, -0.00125; to ACGCTGAC, 0.0741.

Regarding AATTGAAT, the “PBM E-score” value came out at 0.05.

As to CCACCACC, the “PBM E-score” value was -0.0598. To ATCCGCGG belongs 0.206; to CGTGCACG, 0.0265; to GTGACCCA, -0.169. For CTACCACC the value was -0.166; for ATAATAGA, 0.0769; for GATGTTTA, 0.093. For CGACCACC the value was -0.0562. ATACACGA: the “PBM E-score” value worked out at 0.00107.

In the case of AAGGTCCT, the “PBM E-score” value was -0.216. To AGACAGGC belongs -0.00114.
